Further values from the same series stand in other lists.
Experiment: Dynamic PET-CT imaging, tracer uptake in brain, muscle and bone
Format: in vivo, Male CD-1 mice
Conditions: 90-minute PET scan
Description: PET-CT imaging of [^18F]—N-(4-(1,2,4,5-tetrazin-3-yl)benzyl)-4-fluorobenzamide
A Siemens Inveon® Multimodality Scanner (Siemens, Germany) is used for micro PET/CT imaging. Male CD-1 (6-week-old, ˜30 g) mice are anesthetized with 3% isoflurane/97% oxygen and placed on the bed of the scanner. The mice are administered [^18F]—N-(4-(1,2,4,5-tetrazin-3-yl)benzyl)-4-fluorobenzamide via a bolus intravenous tail vein injection (˜[…] in a total volume of 200 μL saline). A total of six (four 60 min and two 90 min) dynamic PET scans are conducted, followed by a short high-resolution CT scan for anatomical registration. PET images are generated for each minute of the acquisition time. Uptake of the tracer in the brain, muscle, and bone are determined by visually drawing regions of interest (ROIs) based on the fused PET/CT images and the corresponding activity values are determined using the Inveon® Research Workplace software. All values are represented as % injected dose per gram (% ID/g).
Bone uptake throughout the scan period remained low, consistent with an absence of defluorination for this tracer. Results of the 90 min scans are similar to the 60 min scan results with peak brain uptake observed at 3.4% ID/g at 2.5 min post injection followed by an immediate wash out to 0.6% ID/g by 59.5 min. Residual uptake is also observed throughout the body of the mouse. Time activity curves are generated for [^18F]—N-(4-(1,2,4,5-tetrazin-3-yl)benzyl)-4-fluorobenzamide in CD-1 male mice (n=4). Data is shown in graphical format in FIGS. 1A and 1B and in tabular format below.

O=C(NCc1ccc(-c2nncnn2)cc1)c1ccc([18F])cc1 [[^18F]—N-(4-(1,2,4,5-tetrazin-3-yl)benzyl)-4-fluorobenzamide]
Bone Mean (time 0 min): 0 % ID/g
Brain Mean (time 0 min): 0 % ID/g
Muscle Mean (time 0 min): 0 % ID/g
Bone Mean (time 0.5 min): 0 % ID/g
Brain Mean (time 0.5 min): 0 % ID/g
Muscle Mean (time 0.5 min): 0 % ID/g
Bone Mean (time 1.5 min): 0.48 % ID/g
Brain Mean (time 1.5 min): 2.02 % ID/g
Muscle Mean (time 1.5 min): 0.29 % ID/g
Bone Mean (time 2.5 min): 0.90 % ID/g
Brain Mean (time 2.5 min): 3.41 % ID/g
Muscle Mean (time 2.5 min): 0.63 % ID/g
Bone Mean (time 3.5 min): 0.90 % ID/g
Brain Mean (time 3.5 min): 3.06 % ID/g
Muscle Mean (time 3.5 min): 0.66 % ID/g
Bone Mean (time 4.5 min): 0.90 % ID/g
Brain Mean (time 4.5 min): 2.76 % ID/g
Muscle Mean (time 4.5 min): 0.63 % ID/g
Bone Mean (time 5.5 min): 0.87 % ID/g
Brain Mean (time 5.5 min): 2.50 % ID/g
Muscle Mean (time 5.5 min): 0.60 % ID/g
Bone Mean (time 6.5 min): 0.97 % ID/g
Brain Mean (time 6.5 min): 2.38 % ID/g
Muscle Mean (time 6.5 min): 0.68 % ID/g
Bone Mean (time 7.5 min): 0.94 % ID/g
Brain Mean (time 7.5 min): 2.19 % ID/g
Muscle Mean (time 7.5 min): 0.62 % ID/g
Bone Mean (time 8.5 min): 0.93 % ID/g
Brain Mean (time 8.5 min): 2.02 % ID/g
Muscle Mean (time 8.5 min): 0.68 % ID/g
Bone Mean (time 9.5 min): 1.01 % ID/g
Brain Mean (time 9.5 min): 1.87 % ID/g
Muscle Mean (time 9.5 min): 0.71 % ID/g
Bone Mean (time 10.5 min): 0.70 % ID/g
Brain Mean (time 10.5 min): 1.74 % ID/g
Muscle Mean (time 10.5 min): 0.65 % ID/g
Bone Mean (time 11.5 min): 0.82 % ID/g
Brain Mean (time 11.5 min): 1.63 % ID/g
Muscle Mean (time 11.5 min): 0.66 % ID/g
Bone Mean (time 12.5 min): 0.84 % ID/g
Brain Mean (time 12.5 min): 1.55 % ID/g
Muscle Mean (time 12.5 min): 0.67 % ID/g
Bone Mean (time 13.5 min): 0.83 % ID/g
Brain Mean (time 13.5 min): 1.44 % ID/g
Muscle Mean (time 13.5 min): 0.65 % ID/g
Bone Mean (time 14.5 min): 0.63 % ID/g
Brain Mean (time 14.5 min): 1.36 % ID/g
Muscle Mean (time 14.5 min): 0.64 % ID/g
Bone Mean (time 15.5 min): 0.62 % ID/g
Brain Mean (time 15.5 min): 1.29 % ID/g
Muscle Mean (time 15.5 min): 0.64 % ID/g
Bone Mean (time 16.5 min): 0.71 % ID/g
Brain Mean (time 16.5 min): 1.23 % ID/g
Muscle Mean (time 16.5 min): 0.60 % ID/g
Bone Mean (time 17.5 min): 0.51 % ID/g
Brain Mean (time 17.5 min): 1.16 % ID/g
Muscle Mean (time 17.5 min): 0.62 % ID/g
Bone Mean (time 18.5 min): 0.71 % ID/g
Brain Mean (time 18.5 min): 1.11 % ID/g
Muscle Mean (time 18.5 min): 0.63 % ID/g
Bone Mean (time 19.5 min): 0.74 % ID/g
Brain Mean (time 19.5 min): 1.04 % ID/g
Muscle Mean (time 19.5 min): 0.63 % ID/g
Bone Mean (time 20.5 min): 0.63 % ID/g
Brain Mean (time 20.5 min): 1.02 % ID/g
Muscle Mean (time 20.5 min): 0.66 % ID/g
Bone Mean (time 21.5 min): 0.70 % ID/g
Brain Mean (time 21.5 min): 0.97 % ID/g
Muscle Mean (time 21.5 min): 0.61 % ID/g
Bone Mean (time 22.5 min): 0.69 % ID/g
Brain Mean (time 22.5 min): 0.95 % ID/g
Muscle Mean (time 22.5 min): 0.61 % ID/g
Bone Mean (time 23.5 min): 0.78 % ID/g
Brain Mean (time 23.5 min): 0.91 % ID/g
Muscle Mean (time 23.5 min): 0.65 % ID/g
Bone Mean (time 24.5 min): 0.73 % ID/g
Brain Mean (time 24.5 min): 0.88 % ID/g
Muscle Mean (time 24.5 min): 0.64 % ID/g
Bone Mean (time 25.5 min): 0.95 % ID/g
Brain Mean (time 25.5 min): 0.85 % ID/g
Muscle Mean (time 25.5 min): 0.62 % ID/g
Bone Mean (time 26.5 min): 0.64 % ID/g
Brain Mean (time 26.5 min): 0.83 % ID/g
Muscle Mean (time 26.5 min): 0.58 % ID/g
Bone Mean (time 27.5 min): 0.69 % ID/g
Brain Mean (time 27.5 min): 0.82 % ID/g
Muscle Mean (time 27.5 min): 0.60 % ID/g
Bone Mean (time 28.5 min): 0.60 % ID/g
Brain Mean (time 28.5 min): 0.81 % ID/g

Reference: US20220401589A1, “PRE-TARGETING IMAGING AGENTS” (Eli Lilly and Company, priority 2019, published 2022)
